Assay results from patent publication US20250188090A1, “A METHOD FOR EXTRACTION OF ALKALOID” (priority 2022, published 2025).
≈ marks a conversion by molar mass, not a printed value.

Experiment: physchem
Settings: pH 9, aqueous buffer

`CN1CC[C@]23c4c5ccc(O)c4O[C@H]2[C@@H](O)C=C[C@H]3[C@H]1C5` [morphine] gave a solubility of 208 µg/mL (≈ 729 µM).
